System: HeLa S3 cells
Assay: Intracellular/extracellular presence ratio in transfected HeLa S3 cells (Western blot)
Format: cell-based, human
Details: 48 hr after transfection

B1: DLAD: novel acid DNase cleaving DNA independently from divalent cations; mouse, amino acid Nos. 1 to 332 of SEQ ID NO: 1 (protein, listed as Mus musculus)
chain: MTAKPLRTVLSLLFFALSGVLGTPEISCRNEYGEAVDWFIFYKLPKRTSKASEEAGLQYLYLDSTRQTWNKSLYLINSTRSALGRTLQHLYDTHNSTNDTAYLIYNDGVPGSVNYSRQYGHAKGLLVWNRTQGFWLIHSVPKFPPVHGYEYPTSGRRYGQTGICITFGYSQFEEIDFQLLVLQPNIYSCFIPSTFHWKLIYMPRMCANSSSLKIPVRYLAELHSAQGLNFVHFAKSSFYTDDIFTGWIAQKLKTHLLAQTWQKKKQELPSNCSLPYHVYNIKSIGVTSKSYFSSRQDHSKWCVSIKGSANRWTCIGDLNRSLHQALRGGGFI
Share of protein in extracellular fraction (medium): about 30%
Share of protein retained within the cells: about 70%

Source: patent US7402310B2, “Deoxyribonuclease, gene encoding same and use thereof” (priority 2001, dated 2008)
